Results as given in doi:10.1101/823096.
These are yes or no findings as the source states them, for the method shown. Binding seen in cells or lysates may run through a third protein.

Assays:
Experiment in all cases: co-IP
[1] = molecular target: SV40 ST P132A, CTAP-tagged (SV40)
[2] = molecular target: SV40 ST R21A, CTAP-tagged (SV40)
[3] = molecular target: SV40 ST W147A, CTAP-tagged (SV40)
[4] = molecular target: SV40 ST F148A, CTAP-tagged (SV40)

Measured: binding

B1: STRN3, endogenous (protein, UniProt Q13033 1-797)
chain: MDELAGGGGGGPGMAAPPRQQQGPGGNLGLSPGGNGAAGGGGPPASEGAGPAAGPELSRPQQYTIPGILHYIQHEWARFEMERAHWEVERAELQARIAFLQGERKGQENLKKDLVRRIKMLEYALKQERAKYHKLKYGTELNQGDLKMPTFESEETKDTEAPTAPQNSQLTWKQGRQLLRQYLQEVGYTDTILDVRSQRVRSLLGLSNSEPNGSVETKNLEQILNGGESPKQKGQEIKRSSGDVLETFNFLENADDSDEDEENDMIEGIPEGKDKHRMNKHKIGNEGLAADLTDDPDTEEALKEFDFLVTAEDGEGAGEARSSGDGTEWDKDDLSPTAEVWDVDQGLISKLKEQYKKERKGKKGVKRANRTKLYDMIADLGDDELPHIPSGIINQSRSASTRMTDHEGARAEEAEPITFPSGGGKSFIMGSDDVLLSVLGLGDLADLTVTNDADYSYDLPANKDAFRKTWNPKYTLRSHFDGVRALAFHPVEPVLVTASEDHTLKLWNLQKTVPAKKSASLDVEPIYTFRAHIGPVLSLAISSNGEQCFSGGIDATIQWWNMPSPSVDPYDTYEPNVLAGTLVGHTDAVWGLAYSGIKNQLLSCSADGTVRLWNPQEKLPCICTYNGDKKHGIPTSVDFIGCDPAHMVTSFNTGSAVIYDLETSQSLVILSSQVDSGLQSNNHINRVVSHPTLPVTITAHEDRHIKFFDNKTGKMIHSMVAHLDAVTSLAVDPNGIYLMSGSHDCSIRLWNLDSKTCVQEITAHRKKLDESIYDVAFHSSKAYIASAGADALAKVFV
no binding: all assays above
